For six molecules, binding results are on record in PMC12579238.

Results are given in words; binding and its absence hold for the method and conditions named. Binding seen in cells or lysates may run through a third protein. A yes stands for co-enrichment or nearness to the bait. Other partners may have been found.

The experiment concerns the target T1, CLN7 (human (endogenous in SH-SY5Y)) (UniProt Q8NHS3).
T1 sequence: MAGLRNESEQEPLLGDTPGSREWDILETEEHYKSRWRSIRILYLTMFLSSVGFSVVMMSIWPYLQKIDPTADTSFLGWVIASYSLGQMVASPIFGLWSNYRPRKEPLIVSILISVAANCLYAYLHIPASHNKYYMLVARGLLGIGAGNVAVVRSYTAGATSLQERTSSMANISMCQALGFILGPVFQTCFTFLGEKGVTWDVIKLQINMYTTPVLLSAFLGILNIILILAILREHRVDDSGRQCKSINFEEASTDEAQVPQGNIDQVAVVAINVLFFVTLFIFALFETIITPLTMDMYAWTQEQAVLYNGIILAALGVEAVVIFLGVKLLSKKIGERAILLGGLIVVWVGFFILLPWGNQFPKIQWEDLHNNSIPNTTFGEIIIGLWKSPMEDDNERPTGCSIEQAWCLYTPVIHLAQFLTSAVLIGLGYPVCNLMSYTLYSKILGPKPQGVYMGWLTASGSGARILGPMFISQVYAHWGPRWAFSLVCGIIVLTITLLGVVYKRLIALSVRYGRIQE
Kind of experiment: affinity purification with mass spectrometry; endogenous CLN7 immunoprecipitated from 2.5 mg SH-SY5Y lysate with a polyclonal anti-CLN7 antibody raised against L9 (351-421aa, Proteintech) on G-sepharose beads; IgG as non-specific binding control; 4 independent replicates; cells under steady state culture conditions.

B1: SART1 (protein, UniProt O43290 1-800)
chain: MGSSKKHRGEKEAAGTTAAAGTGGATEQPPRHREHKKHKHRSGGSGGSGGERRKRSRERGGERGSGRRGAEAEARSSTHGRERSQAEPSERRVKREKRDDGYEAAASSKTSSGDASSLSIEETNKLRAKLGLKPLEVNAIKKEAGTKEEPVTADVINPMALRQREELREKLAAAKEKRLLNQKLGKIKTLGEDDPWLDDTAAWIERSRQLQKEKDLAEKRAKLLEEMDQEFGVSTLVEEEFGQRRQDLYSARDLQGLTVEHAIDSFREGETMILTLKDKGVLQEEEDVLVNVNLVDKERAEKNVELRKKKPDYLPYAEDESVDDLAQQKPRSILSKYDEELEGERPHSFRLEQGGTADGLRERELEEIRAKLRLQAQSLSTVGPRLASEYLTPEEMVTFKKTKRRVKKIRKKEKEVVVRADDLLPLGDQTQDGDFGSRLRGRGRRRVSEVEEEKEPVPQPLPSDDTRVENMDISDEEEGGAPPPGSPQVLEEDEAELELQKQLEKGRRLRQLQQLQQLRDSGEKVVEIVKKLESRQRGWEEDEDPERKGAIVFNATSEFCRTLGEIPTYGLAGNREEQEELMDFERDEERSANGGSESDGEENIGWSTVNLDEEKQQQDFSASSTTILDEEPIVNRGLAAALLLCQNKGLLETTVQKVARVKAPNKSLPSAVYCIEDKMAIDDKYSRREEYRGFTQDFKEKDGYKPDVKIEYVDETGRKLTPKEAFRQLSHRFHGKGSGKMKTERRMKKLDEEALLKKMSSSDTPLGTVALLQEKQKAQKTPYIVLSGSGKSMNANTITK
As to B1, the binding result is recorded as “binds”.

B2: BCR (protein, UniProt P11274 1-1271)
chain: MVDPVGFAEAWKAQFPDSEPPRMELRSVGDIEQELERCKASIRRLEQEVNQERFRMIYLQTLLAKEKKSYDRQRWGFRRAAQAPDGASEPRASASRPQPAPADGADPPPAEEPEARPDGEGSPGKARPGTARRPGAAASGERDDRGPPASVAALRSNFERIRKGHGQPGADAEKPFYVNVEFHHERGLVKVNDKEVSDRISSLGSQAMQMERKKSQHGAGSSVGDASRPPYRGRSSESSCGVDGDYEDAELNPRFLKDNLIDANGGSRPPWPPLEYQPYQSIYVGGMMEGEGKGPLLRSQSTSEQEKRLTWPRRSYSPRSFEDCGGGYTPDCSSNENLTSSEEDFSSGQSSRVSPSPTTYRMFRDKSRSPSQNSQQSFDSSSPPTPQCHKRHRHCPVVVSEATIVGVRKTGQIWPNDGEGAFHGDADGSFGTPPGYGCAADRAEEQRRHQDGLPYIDDSPSSSPHLSSKGRGSRDALVSGALESTKASELDLEKGLEMRKWVLSGILASEETYLSHLEALLLPMKPLKAAATTSQPVLTSQQIETIFFKVPELYEIHKEFYDGLFPRVQQWSHQQRVGDLFQKLASQLGVYRAFVDNYGVAMEMAEKCCQANAQFAEISENLRARSNKDAKDPTTKNSLETLLYKPVDRVTRSTLVLHDLLKHTPASHPDHPLLQDALRISQNFLSSINEEITPRRQSMTVKKGEHRQLLKDSFMVELVEGARKLRHVFLFTDLLLCTKLKKQSGGKTQQYDCKWYIPLTDLSFQMVDELEAVPNIPLVPDEELDALKIKISQIKNDIQREKRANKGSKATERLKKKLSEQESLLLLMSPSMAFRVHSRNGKSYTFLISSDYERAEWRENIREQQKKCFRSFSLTSVELQMLTNSCVKLQTVHSIPLTINKEDDESPGLYGFLNVIVHSATGFKQSSNLYCTLEVDSFGYFVNKAKTRVYRDTAEPNWNEEFEIELEGSQTLRILCYEKCYNKTKIPKEDGESTDRLMGKGQVQLDPQALQDRDWQRTVIAMNGIEVKLSVKFNSREFSLKRMPSRKQTGVFGVKIAVVTKRERSKVPYIVRQCVEEIERRGMEEVGIYRVSGVATDIQALKAAFDVNNKDVSVMMSEMDVNAIAGTLKLYFRELPEPLFTDEFYPNFAEGIALSDPVAKESCMLNLLLSLPEANLLTFLFLLDHLKRVAEKEAVNKMSLHNLATVFGPTLLRPSEKESKLPANPSQPITMTDSWSLEVMSQVQVLLYFLQLEAIPAPDSKRQSILFSTEV
For the molecule B2, the binding entry is listed as “binds”.

B3: SMARCAL1 (protein, UniProt Q9NZC9 1-954)
chain: MSLPLTEEQRKKIEENRQKALARRAEKLLAEQHQRTSSGTSIAGNPFQAKQGPSQNFPRESCKPVSHGVIFKQQNLSSSSNADQRPHDSHSFQAKGIWKKPEEMPTACPGHSPRSQMALTGISPPLAQSPPEVPKQQLLSYELGQGHAQASPEIRFTPFANPTHKPLAKPKSSQETPAHSSGQPPRDAKLEAKTAKASPSGQNISYIHSSSESVTPRTEGRLQQKSGSSVQKGVNSQKGKCVRNGDRFQVLIGYNAELIAVFKTLPSKNYDPDTKTWNFSMNDYSALMKAAQSLPTVNLQPLEWAYGSSESPSTSSEGQAGLPSAPSLSFVKGRCMLISRAYFEADISYSQDLIALFKQMDSRRYDVKTRKWSFLLEEHSKLIAKVRCLPQVQLDPLPTTLTLAFASQLKKTSLSLTPDVPEADLSEVDPKLVSNLMPFQRAGVNFAIAKGGRLLLADDMGLGKTIQAICIAAFYRKEWPLLVVVPSSVRFTWEQAFLRWLPSLSPDCINVVVTGKDRLTAGLINIVSFDLLSKLEKQLKTPFKVVIIDESHFLKNSRTARCRAAMPVLKVAKRVILLSGTPAMSRPAELYTQIIAVKPTFFPQFHAFGLRYCDAKRMPWGWDYSGSSNLGELKLLLEEAVMLRRLKSDVLSQLPAKQRKIVVIAPGRINARTRAALDAAAKEMTTKDKTKQQQKDALILFFNRTAEAKIPSVIEYILDLLESGREKFLVFAHHKVVLDAITQELERKHVQHIRIDGSTSSAEREDLCQQFQLSERHAVAVLSITAANMGLTFSSADLVVFAELFWNPGVLIQAEDRVHRIGQTSSVGIHYLVAKGTADDYLWPLIQEKIKVLAEAGLSETNFSEMTESTDYLYKDPKQQKIYDLFQKSFEKEGSDMELLEAAESFDPGSASGTSGSSSQNMGDTLDESSLTASPQKKRRFEFFDNWDSFTSPL
With B3, the binding entry is recorded as “binds”.

B4: SPATA5 (protein, UniProt Q8NB90 1-893)
chain: MSSKKNRKRLNQSAENGSSLPSAASSCAEARAPSAGSDFAATSGTLTVTNLLEKVDDKIPKTFQNSLIHLGLNTMKSANICIGRPVLLTSLNGKQEVYTAWPMAGFPGGKVGLSEMAQKNVGVRPGDAIQVQPLVGAVLQAEEMDVALSDKDMEINEEELTGCILRKLDGKIVLPGNFLYCTFYGRPYKLQVLRVKGADGMILGGPQSDSDTDAQRMAFEQSSMETSSLELSLQLSQLDLEDTQIPTSRSTPYKPIDDRITNKASDVLLDVTQSPGDGSGLMLEEVTGLKCNFESAREGNEQLTEEERLLKFSIGAKCNTDTFYFISSTTRVNFTEIDKNSKEQDNQFKVTYDMIGGLSSQLKAIREIIELPLKQPELFKSYGIPAPRGVLLYGPPGTGKTMIARAVANEVGAYVSVINGPEIISKFYGETEAKLRQIFAEATLRHPSIIFIDELDALCPKREGAQNEVEKRVVASLLTLMDGIGSEVSEGQVLVLGATNRPHALDAALRRPGRFDKEIEIGVPNAQDRLDILQKLLRRVPHLLTEAELLQLANSAHGYVGADLKVLCNEAGLCALRRILKKQPNLPDVKVAGLVKITLKDFLQAMNDIRPSAMREIAIDVPNVSWSDIGGLESIKLKLEQAVEWPLKHPESFIRMGIQPPKGVLLYGPPGCSKTMIAKALANESGLNFLAIKGPELMNKYVGESERAVRETFRKARAVAPSIIFFDELDALAVERGSSLGAGNVADRVLAQLLTEMDGIEQLKDVTILAATNRPDRIDKALMRPGRIDRIIYVPLPDAATRREIFKLQFHSMPVSNEVDLDELILQTDAYSGAEIVAVCREAALLALEEDIQANLIMKRHFTQALSTVTPRIPESLRRFYEDYQEKSGLHTL
B4: the binding result was “binds”.

B5: SFRS2 (protein, UniProt Q01130 1-221)
chain: MSYGRPPPDVEGMTSLKVDNLTYRTSPDTLRRVFEKYGRVGDVYIPRDRYTKESRGFAFVRFHDKRDAEDAMDAMDGAVLDGRELRVQMARYGRPPDSHHSRRGPPPRRYGGGGYGRRSRSPRRRRRSRSRSRSRSRSRSRSRYSRSKSRSRTRSRSRSTSKSRSARRSKSKSSSVSRSRSRSRSRSRSRSPPPVSKRESKSRSRSKSPPKSPEEEGAVSS
On to B5, for which the binding result is “binds”.

B6: SMC6 (protein, UniProt Q96SB8 1-1091)
chain: MAKRKEENFSSPKNAKRPRQEELEDFDKDGDEDECKGTTLTAAEVGIIESIHLKNFMCHSMLGPFKFGSNVNFVVGNNGSGKSAVLTALIVGLGGRAVATNRGSSLKGFVKDGQNSADISITLRNRGDDAFKASVYGNSILIQQHISIDGSRSYKLKSATGSVVSTRKEELIAILDHFNIQVDNPVSVLTQEMSKQFLQSKNEGDKYKFFMKATQLEQMKEDYSYIMETKERTKEQIHQGEERLTELKRQCVEKEERFQSIAGLSTMKTNLESLKHEMAWAVVNEIEKQLNAIRDNIKIGEDRAARLDRKMEEQQVRLNEAEQKYKDIQDKLEKISEETNARAPECMALKADVVAKKRAYNEAEVLYNRSLNEYKALKKDDEQLCKRIEELKKSTDQSLEPERLERQKKISWLKERVKAFQNQENSVNQEIEQFQQAIEKDKEEHGKIKREELDVKHALSYNQRQLKELKDSKTDRLKRFGPNVPALLEAIDDAYRQGHFTYKPVGPLGACIHLRDPELALAIESCLKGLLQAYCCHNHADERVLQALMKRFYLPGTSRPPIIVSEFRNEIYDVRHRAAYHPDFPTVLTALEIDNAVVANSLIDMRGIETVLLIKNNSVARAVMQSQKPPKNCREAFTADGDQVFAGRYYSSENTRPKFLSRDVDSEISDLENEVENKTAQILNLQQHLSALEKDIKHNEELLKRCQLHYKELKMKIRKNISEIRELENIEEHQSVDIATLEDEAQENKSKMKMVEEHMEQQKENMEHLKSLKIEAENKYDAIKFKINQLSELADPLKDELNLADSEVDNQKRGKRHYEEKQKEHLDTLNKKKRELDMKEKELEEKMSQARQICPERIEVEKSASILDKEINRLRQKIQAEHASHGDREEIMRQYQEARETYLDLDSKVRTLKKFIKLLGEIMEHRFKTYQQFRRCLTLRCKLYFDNLLSQRAYCGKMNFDHKNETLSISVQPGEGNKAAFNDMRALSGGERSFSTVCFILSLWSIAESPFRCLDEFDVYMDMVNRRIAMDLILKMADSQRFRQFILLTPQSMSSLPSSKLIRILRMSDPERGQTTLPFRPVTQEEDDDQR
B6: the binding result is “binds”.
